According to US20100297194A1, “FORMULATION FOR ORAL ADMINISTRATION OF APOPTOSIS PROMOTER” (priority 2009, published 2010):
At least one compound was matched to its structure with a doubt left.

How the values were obtained:
Assay type in all cases: physicochemical
[1] = comparative storage study at ambient temperature, IOT-343 vs IPT-442 (Example 5); details: ambient conditions, 3 months
[2] = antioxidant testing, two-week stress test at 40° C. with nitrogen purging (Example 6); details: Lipoid S75 MCT, 100 mg/g
[3] = BHA as antioxidant, 4-week stability study at 40° C. (Example 7); details: no nitrogen purging

CC1(C)CCC(c2ccc(Cl)cc2)=C(CN2CCN(c3ccc(C(=O)NS(=O)(=O)c4ccc(N[C@H](CCN5CCOCC5)CSc5ccccc5)c(S(=O)(=O)C(F)(F)F)c4)cc3)CC2)C1 [ABT-263, N-(4-(4-((2-(4-chlorophenyl)-5,5-dimethyl-1-cyclohex-1-en-1-yl)methyl)piperazin-1-yl)benzoyl)-4-(((1R)-3-(morpholin-4-yl)-1-((phenylsulfanyl)methyl)propyl)amino)-3-((trffluoromethyl)sulfonyl)benzene-sulfonamide]
total sulfoxide levels ([1]; 10% by weight in IOT-343): 1.3% | total sulfoxide levels ([1]; 10% by weight in IPT-442): 0.5% | appearance of solution (printed in place of % w/w total sulfoxides) ([2]; Na metabisulfite 0.1% (w/w) added as 15% w/v aqueous stock): cloudy solution | appearance of solution (printed in place of % w/w total sulfoxides) ([2]; Na thiosulfate 0.1% (w/w) added as 15% w/v aqueous stock): cloudy solution | % Total sulfoxides ([3]; 15% free base in IPT-253, 0.2% BHA, 0 weeks): 0.06% | % Total sulfoxides ([3]; 15% free base in IPT-253, 0.2% BHA, 1 week): 0.29% | % Total sulfoxides ([3]; 15% free base in IPT-253, 0.2% BHA, 2 weeks): 0.49% | % Total sulfoxides ([3]; 15% free base in IPT-253, 0.2% BHA, 3 weeks): 0.58% | % Total sulfoxides ([3]; 15% free base in IPT-253, 0.2% BHA, 4 weeks): 0.68% | % Total sulfoxides ([3]; 15% free base in IPT-253, no antioxidant, 0 weeks): not detectable | % Total sulfoxides ([3]; 15% free base in IPT-253, no antioxidant, 1 week): 0.26% | % Total sulfoxides ([3]; 15% free base in IPT-253, no antioxidant, 2 weeks): 0.47% | % Total sulfoxides ([3]; 15% free base in IPT-253, no antioxidant, 3 weeks): 0.56% | % Total sulfoxides ([3]; 15% free base in IPT-253, no antioxidant, 4 weeks): 0.67%
